Measurements published in patent publication US12577244B2, “Heterocyclic compound and harmful arthropod-controlling composition containing same” (SUMITOMO CHEMICAL COMPANY, LIMITED, priority 2020, dated 2026).
Some of these results come from one statement about several compounds together. At least one compound was matched to its structure with a doubt left.

Test system: cotton aphids (Aphis gossypii)
Assay: Test Method 1: foliar spray on cucumber seedling infested with cotton aphids (Formulation Example 1)
Format: in vivo
Details: 500 ppm, spray 10 mL/seedling, 5 days after spraying, 25° C.

Structure (SMILES) | controlling value [%]
CCS(=O)(=O)c1c(N(C)C(=O)c2ccc(S(F)(F)(F)(F)F)cc2)nc2ccc(I)cn12 [compound 139] | ≥ 90
CCSc1c(N(C)C(=O)c2cc(Cl)cc(Cl)c2)nc2ccc(I)cn12 [compound 25] | ≥ 90
CCN(C(=O)c1cccc(SC(F)(F)F)c1)c1nc2ccc(Br)cn2c1S(=O)(=O)CC [compound 33] | ≥ 90
CCS(=O)(=O)c1c(N(C)C(=O)c2ccc(C(F)(F)F)cc2)nc2ccc(C(F)(F)F)cn12 [compound 129] | ≥ 90
CCS(=O)(=O)c1c(N(C)C(=O)c2cccc(SC(F)(F)F)c2)nc2ccc(Br)cn12 [compound 32] | ≥ 90
CCS(=O)(=O)c1c(N(C)C(=O)c2cc(C(F)(F)F)cc(C(F)(F)F)c2)nc2ccc(I)cn12 [compound 50] | ≥ 90
CCSc1c(N(C)C(=O)c2cc(Br)cc(C(F)(F)F)c2)nc2ccc(I)cn12 [compound 22] | ≥ 90
CCS(=O)(=O)c1c(N2CNc3cc(C(F)(F)F)ccc3C2=O)nc2ccc(Br)cn12 [compound 59] | ≥ 90
CC[S+]([O-])c1c(N(C)C(=O)c2cncc(C(F)(F)F)c2)nc2ccc(I)cn12 (centres unmarked) [compound 71] | ≥ 90
CCSc1c(N(CC#N)C(=O)c2cc(C(F)(F)F)cc(C(F)(F)F)c2)nc2ccc(I)cn12 [compound 78] | ≥ 90
CCS(=O)(=O)c1c(N(C)C(=O)c2ccc(C(F)(F)F)cc2)nc2ccc(Cl)cn12 [compound 130] | ≥ 90
CCS(=O)(=O)c1c(N(C)C(=O)c2cc(Cl)cc(Cl)c2)nc2ccc(I)cn12 [compound 55] | ≥ 90
CCSc1c(N(C)C(=O)c2cc(C(F)(F)F)ccn2)nc2ccc(Br)cn12 [compound 67] | ≥ 90
CCSc1c(N(C)C(=O)c2cc(Br)cc(Br)c2)nc2ccc(I)cn12 [compound 23] | ≥ 90
CCSc1c(N(C)C(=O)c2cccc(SC(F)(F)F)c2)nc2ccc(C(F)(F)F)cn12 [compound 4] | ≥ 90
CC[S+]([O-])c1c(N(C)C(=O)c2cc(Cl)cc(Cl)c2)nc2ccc(I)cn12 (centres unmarked) [compound 30] | ≥ 90
CCN1CN(c2nc3ccc(Br)cn3c2S(=O)(=O)CC)C(=O)c2cc(C(F)(F)F)ccc21 [compound 63] | ≥ 90
CCS(=O)(=O)c1c(N(C)C(=O)c2cc(OC(F)F)cc(OC(F)F)c2)nc2ccc(I)cn12 [compound 137] | ≥ 90
CCS(=O)(=O)c1c(N(Cc2ccccc2)C(=O)c2ccc(C(F)(F)F)cc2)nc2ccc(Br)cn12 [compound 135] | ≥ 90
CCS(=O)(=O)c1c(N(C)C(=O)c2cccc(C(F)(F)C(F)(F)F)c2)nc2ccc(I)cn12 [compound 88] | ≥ 90
CCS(=O)(=O)c1c(N(C)C(=O)c2cc(C(F)(F)F)cc(C(F)(F)F)c2)nc2ccc(C(F)(F)F)cn12 [compound 125] | ≥ 90

Structure (SMILES) | controlling value [%]
CCSc1c(N(C)C(=O)c2cccc(SC(F)(F)F)c2)nc2ccc(Br)cn12 [compound 2] | ≥ 90
CC[S+]([O-])c1c(N(C)C(=O)c2ccc(SC(F)(F)F)cc2)nc2ccc(C(F)(F)F)cn12 (centres unmarked) [compound 134] | ≥ 90
CCS(=O)(=O)c1c(N(C)C(=O)c2cccc(SC(F)(F)F)c2)nc2ccc(Cl)cn12 [compound 36] | ≥ 90
CCSc1c(N(CC)C(=O)c2ccc(SC(F)(F)F)cc2)nc2ccc(Br)cn12 [compound 8] | ≥ 90
CCSc1c(N(C)C(=O)c2ccc(SC(F)(F)F)cc2)nc2ncccn12 [compound 10] | ≥ 90
CCS(=O)(=O)c1c(N(C)C(=O)c2cccc(OC(F)(F)F)c2)nc2ccc(Br)cn12 [compound 66] | ≥ 90
CC[S+]([O-])c1c(N(C)C(=O)c2ccc(Cl)cc2)nc2ccc(Br)cn12 (centres unmarked) [compound 131] | ≥ 90
CCSc1c(N(C)C(=O)c2cccc(SC(F)(F)F)c2)nc2ccc(Cl)cn12 [compound 5] | ≥ 90
CCS(=O)(=O)c1c(N(C)C(=O)c2cc(C(F)(F)F)ccn2)nc2ccc(I)cn12 [compound 74] | ≥ 90
CCS(=O)(=O)c1c(N(C)C(=O)c2ccc(C(F)(F)F)cc2)nc2ccc(I)cn12 [compound 65] | ≥ 90
CC[S+]([O-])c1c(N(C)C(=O)c2ccc(I)cc2)nc2ccc(Br)cn12 (centres unmarked) [compound 132] | ≥ 90
CCSc1c(N(C)C(=O)c2cccc(C(F)(F)F)n2)nc2ccc(Br)cn12 [compound 68] | ≥ 90
CC[S+]([O-])c1c(N(C)C(=O)c2ccc(C(F)(F)F)cc2)nc2ccc(Br)cn12 (centres unmarked) [compound 82] | ≥ 90
CC[S+]([O-])c1c(N(C)C(=O)c2cccc(Cl)c2)nc2ccc(Br)cn12 (centres unmarked) [compound 142] | ≥ 90
CCSc1c(N(C)C(=O)c2ccc(SC(F)(F)F)cc2)nc2ccc(Br)cn12 [compound 7] | ≥ 90
CCSc1c(N(C)C(=O)c2ccc(SC(F)(F)F)cc2)nc2ccc(I)cn12 [compound 9] | ≥ 90
CCS(=O)(=O)c1c(N(C)C(=O)c2ccc(I)cc2)nc2ccc(Br)cn12 [compound 141] | ≥ 90
CCS(=O)(=O)c1c(N(C)C(=O)c2ccc(SC(F)(F)F)cc2)nc2ccc(I)cn12 [compound 39] | ≥ 90
CC[S+]([O-])c1c(N(C)C(=O)c2cc(Br)cc(C(F)(F)F)c2)nc2ccc(I)cn12 (centres unmarked) [compound 29] | ≥ 90
CCSc1c(N(CC)C(=O)c2cccc(SC(F)(F)F)c2)nc2ccc(Br)cn12 [compound 3] | ≥ 90
CC[S+]([O-])c1c(N(C)C(=O)c2cc(C(F)(F)F)cc(C(F)(F)F)c2)nc2ccc(I)cn12 (centres unmarked) [compound 70] | ≥ 90

Structure (SMILES) | controlling value [%]
CCS(=O)(=O)c1c(N(C)C(=O)c2ccc(C(F)(F)F)cc2)nc2ccc(Br)cn12 [compound 31] | ≥ 90
CCS(=O)(=O)c1c(N2CNc3ccc(OC(F)(F)F)cc3C2=O)nc2ccc(I)cn12 [compound 61] | ≥ 90
CCS(=O)(=O)c1c(N(C)C(=O)c2cncc(C(F)(F)F)c2)nc2ccc(I)cn12 [compound 72] | ≥ 90
CCSc1c(N(C)C(=O)c2ccc(C(F)(F)F)cc2)nc2ccc(I)cn12 [compound 64] | ≥ 90
CCS(=O)(=O)c1c(N(Cc2ccc[n+]([O-])c2)C(=O)c2ccc(C(F)(F)F)cc2)nc2ccc(Br)cn12 [compound 136] | ≥ 90
CCS(=O)(=O)c1c(N2CNc3ccc(C(F)(F)F)cc3C2=O)nc2ccc(Br)cn12 [compound 60] | ≥ 90
CCS(=O)(=O)c1c(N(C)C(=O)c2cccc(Cl)c2)nc2ccc(Br)cn12 [compound 143] | ≥ 90
CCS(=O)(=O)c1c(N(C)C(=O)c2cncc(Br)c2)nc2ccc(I)cn12 [compound 54] | ≥ 90
CCS(=O)(=O)c1c(N(C)C(=O)c2cc(C(F)(F)F)ccn2)nc2ccc(Br)cn12 [compound 69] | ≥ 90
CCSc1c(N(C)C(=O)c2ccc(F)c(Br)c2)nc2ccc(C(F)(F)F)cn12 [compound 75] | ≥ 90
CCSc1c(N(C)C(=O)c2cc(I)cc(C(F)(F)F)c2)nc2ccc(I)cn12 [compound 76] | ≥ 90
CCS(=O)(=O)c1c(N(C(=O)c2cccc(SC(F)(F)F)c2)C(C)C)nc2ccc(Br)cn12 [compound 34] | ≥ 90
CCSc1c(N(C)C(=O)c2cc(C(F)(F)F)ccn2)nc2ccc(I)cn12 [compound 73] | ≥ 90
CCSc1c(N(C)C(=O)c2cccc(SC(F)(F)F)c2)nc2ncc(Br)cn12 [compound 6] | ≥ 90
CC[S+]([O-])c1c(N(C)C(=O)c2ccc(SC(F)(F)F)cc2)nc2ccc(Br)cn12 (centres unmarked) [compound 81] | ≥ 90
CCSc1c(N(C)C(=O)c2cc(C(F)(F)F)cc(C(F)(F)F)c2)nc2ccc(I)cn12 [compound 20] | ≥ 90
CCSc1c(N(C)C(=O)c2cncc(Br)c2)nc2ccc(I)cn12 [compound 24] | ≥ 90
CCS(=O)(=O)c1c(N(CC#N)C(=O)c2cc(C(F)(F)F)cc(C(F)(F)F)c2)nc2ccc(I)cn12 [compound 80] | ≥ 90
CCS(=O)(=O)c1c(N(C)C(=O)c2cc(Br)cc(Br)c2)nc2ccc(I)cn12 [compound 53] | ≥ 90
CCSc1c(N(C)C(=O)c2cc(C#N)cc(C(F)(F)F)c2)nc2ccc(Br)cn12 [compound 21] | ≥ 90
